According to PubChem BioAssay AID901 (National Center for Advancing Translational Sciences (NCATS), 2007):
The other results are listed elsewhere or left out. Shown are side measurements of this screen, not its main read-out; they come without a call. The list favours compounds with an active or inconclusive main result. Words in brackets tell the shape of the fitted curve; partial curves, single points and poor fits give uncertain potencies.

Experiment: qHTS Assay for Identifying the Cell-Membrane Permeable IMPase Inhibitors
Settings: CHO-M1 cells, IP1 accumulation, HTRF TR-FRET ratio; measured here: donor channel 620 nm AC50

Structure (SMILES)	AC50
CCCS(=O)(=O)Nc1cc2c(cc1NCc1ccccc1)n(C)c(=O)n2C	11.2 µM [falling, partial curve, poor fit]
Cc1ccc(-c2nc3s/c(=C\c4ccco4)c(=O)n3n2)cc1	0.0158 µM [rising, full curve, poor fit]
CCO/C=C1/C(=O)N(C(C)=O)c2ccccc21	0.158 µM [falling, full curve, poor fit]
CCOC(=O)c1sc(=NC(=O)c2ccc(S(=O)(=O)N3CC(C)OC(C)C3)cc2)n(C)c1C (configuration not stated)	5.01 µM [rising, single point]
O=C(c1ccc(=O)oc1)N1CCOCC1	5.01 µM [rising, partial curve]
Cc1ccc(S(=O)(=O)NC(C)CCc2ccccc2)cc1 (configuration not stated)	31.6 µM [rising, single point]
Cc1cc(C(=O)COc2nncc3ccccc23)c(C)n1C	0.01 µM [rising, partial curve, poor fit]
CC(C)OCCCNC(=O)CNC(=O)c1cccs1	3.98 µM [falling, partial curve]
Cc1ccc2cc(C#N)c(SCC(=O)N3CCCc4ccccc43)nc2c1C	2 µM [falling, partial curve, poor fit]
CC(=O)OC(C(=O)NC1CCCCC1)c1ccc(C)cc1 (configuration not stated)	31.6 µM [rising, single point]
CC(=O)c1ccc(NC2=C(N3CCOCC3)C(=O)c3ccccc3C2=O)cc1	12.6 µM [falling, single point]
COc1ccc(C(=O)Nc2nc(-c3ccc(OC)cc3)c(-c3ccc([N+](=O)[O-])cc3)s2)cc1	0.501 µM [rising, single point]
COc1ccc(C(=O)Nc2nc3n(n2)C(c2ccc(Cl)cc2)C=C(c2ccccc2)N3)cc1OC (configuration not stated)	28.2 µM [rising, single point]
Nc1cc(C2CCCC2)nn1-c1ccccc1	0.0631 µM [falling, full curve, poor fit]
CC(c1ccccc1)N1C(=O)NC(NC(=O)c2cccnc2)(C(F)(F)F)C1=O (configuration not stated)	0.794 µM [falling, full curve]
C=CCC(=O)OCCCCCCOc1ccc(C(=O)O)cc1	31.6 µM [rising, partial curve, poor fit]
c1ccc2c(c1)Sc1ccccc1-n1cnnc1-2	5.01 µM [falling, single point]
CCn1c(SCC(=O)c2ccc(F)cc2)nnc1-c1ccoc1C	0.224 µM [falling, full curve, poor fit]
Cc1ccc(/C=N/NC(=O)C(NC(=O)c2ccccc2)c2n[nH]c(=O)c3ccccc23)cc1 (configuration not stated)	0.1 µM [falling, full curve, poor fit]
CCCCCCCCS(=O)C1CCS(=O)(=O)C1 (configuration not stated)	0.01 µM [rising, full curve, poor fit]
CC1(C)OC(=O)C(=NNc2ccc(O)cc2)C(=O)O1	6.31 µM [falling, single point]
CCCCc1c(C)nc2ccc(Br)cc2c1SCCC#N	35.5 µM [rising, single point]
CCOc1ccc(NC(=O)Cn2cc(C(=O)C3CC3)c3ccccc32)cc1	0.0631 µM [falling, full curve, poor fit]

Structure (SMILES)	AC50
Cc1occc1C(=O)NN=C1C2CC3CC(C2)CC1C3	5.62 µM [rising, single point]
COc1ccc(CCNC(=O)c2ccc3nc(-c4ccco4)c(-c4ccco4)nc3c2)cc1OC	0.794 µM [falling, full curve]
CCOC(=O)c1[nH]c2ccc(Cl)cc2c1NC(=O)c1nonc1C	0.0158 µM [falling, full curve, poor fit]
CCCOc1ccc(/C(O)=C2/C(=O)C(=O)N(CCN(CC)CC)C2c2ccncc2)cc1 (configuration not stated)	3.98 µM [falling, partial curve]
CCn1c(SC/C=C/c2ccccc2)nnc1-c1cnccn1	0.794 µM [falling, full curve]
Cc1sc2nc(CN(C(=O)c3cccs3)C3CCCC3)[nH]c(=O)c2c1C	6.31 µM [rising, single point]
COc1ccnc(NCc2ccc(Cl)cc2)c1C#N	31.6 µM [falling, single point]
Cc1ccc(C2C=C(c3ccc(Cl)cc3)Nc3nc(NC(=O)c4ccco4)nn32)cc1 (configuration not stated)	0.00316 µM [rising, full curve, poor fit]
CCOC(=O)c1sc(NC(=S)NC(=O)C2CC2)cc1C	10 µM [rising, partial curve, poor fit]
O=C(CN(C(=O)c1ccco1)c1cccc(F)c1)NCc1ccc(F)cc1	0.02 µM [rising, full curve, poor fit]
Cc1ccc(-c2nc3ccccc3[nH]2)cc1NC(=O)c1sc2cc(Cl)ccc2c1Cl	31.6 µM [rising, single point]
CCOC(=O)c1sc(NC(=O)c2cccnc2)nc1C	31.6 µM [rising, single point]
O=C(CCNc1ccc(Cl)c(C(F)(F)F)c1)c1ccco1	5.01 µM [falling, single point]
N#CC(C#N)=c1ccc2c(c1)NC1(CCCCC1)N=2	20 µM [falling, single point]
CC(=O)Nc1ccc(S(=O)(=O)Nc2cc(C)c(-n3nc4ccccc4n3)cc2O)cc1	35.5 µM [falling, single point]
CCN(CC)C(=O)c1scc2c1OCCO2	2 µM [falling, partial curve, poor fit]
COC(=O)c1[nH]c2ccc(F)cc2c1NC(=O)Nc1ccc(OC)cc1	15.8 µM [falling, partial curve, poor fit]
N#Cc1cc2c(nc1SCC(=O)Nc1sc3c(c1C#N)CCC3)CCCCC2	5.01 µM [falling, single point]
COc1ccccc1-n1c(SCC(=O)NC(C)(C)C)nnc1-c1ccco1	12.6 µM [falling, partial curve, poor fit]
Cc1nc2ccc3nc(NC(=O)c4ccc5c(c4)OCCO5)sc3c2s1	20 µM [rising, partial curve]
c1ccc2c(c1)CCN(Cc1nnnn1Cc1ccc3c(c1)OCO3)C2	15.8 µM [falling, single point]
CCCOc1ccc(-c2nn(-c3ccccc3)cc2/C=C2\SC(=S)N(C3CCS(=O)(=O)C3)C2=O)cc1 (configuration not stated)	0.0631 µM [rising, partial curve, poor fit]
Oc1[nH]c2ccccc2c1/C=N/N1CCCCC1	5.01 µM [falling, full curve, poor fit]

4 entries picked at random from the list so far, as already listed:
Structure (SMILES)	AC50
COc1ccccc1-n1c(SCC(=O)NC(C)(C)C)nnc1-c1ccco1	12.6 µM [falling, partial curve, poor fit]
COc1ccnc(NCc2ccc(Cl)cc2)c1C#N	31.6 µM [falling, single point]
CCn1c(SC/C=C/c2ccccc2)nnc1-c1cnccn1	0.794 µM [falling, full curve]
CCOC(=O)c1sc(NC(=O)c2cccnc2)nc1C	31.6 µM [rising, single point]

More results:

Structure (SMILES)	AC50
COc1cccc(-c2nnc(NC(=O)c3ccc(S(=O)(=O)N4CCOCC4)cc3)o2)c1	3.98 µM [falling, single point]
CC1(C)COC(c2cccn2Cc2ccccc2Cl)=N1	1.58 µM [falling, partial curve, poor fit]
Nc1nnc(-c2ccccc2)s1	31.6 µM [falling, single point]
COc1cccc(N=Nc2c(=O)[nH]n3c(=O)cc(C)[nH]c23)c1	12.6 µM [falling, partial curve]
O=C(O)CCC(=O)N1CCN(c2nc3ccccc3s2)CC1	35.5 µM [falling, single point]
COc1ccc(Br)cc1-c1noc(-c2ccncc2)n1	35.5 µM [rising, single point]
CCC(=O)NC(Nc1ncc(C)s1)(C(=O)OC)C(F)(F)F (configuration not stated)	0.0447 µM [falling, full curve, poor fit]
O=C(Nc1cc(C(F)(F)F)ccc1N1CCOCC1)c1cccc(F)c1	3.16 µM [falling, single point]
CC(C)(C)C(=O)NC1CCN(S(=O)(=O)c2ccccc2F)CC1	0.00398 µM [falling, full curve, poor fit]
COc1cc(CNc2nc(C)c([N+](=O)[O-])c(C)c2C#N)cc(OC)c1	1.78 µM [rising, full curve]
CCN(CC)c1ccc(NC(=O)c2cnn3c(C(F)F)cc(-c4ccccc4)nc23)cc1	4.47 µM [rising, single point]
CCOC(=O)c1cnn(-c2ccccc2)c1NC(=O)c1ccccc1C	0.126 µM [falling, single point]
CCOc1ccc(C2CC(c3ccccc3C)n3nc(N)nc3N2)cc1 (configuration not stated)	0.0126 µM [falling, full curve, poor fit]
COc1ccc(NC(=S)NN2CCOCC2)cc1OC	0.00501 µM [falling, full curve, poor fit]
CCOC(=O)Nc1ccc2c(c1)N(C(=O)CN(CC)CC)c1ccccc1C=C2	3.55 µM [rising, partial curve, poor fit]
O=C1c2ccccc2C(=O)c2c1ccc(O)c2O	15.8 µM [falling, partial curve]
CC(=O)c1cccc(NC(=O)c2oc(C)nc2C)c1	0.251 µM [falling, partial curve, poor fit]
O=C(NCCN1CCCCC1)c1c(O)c2ccccc2[nH]c1=O	0.0631 µM [rising, full curve, poor fit]
CC(C)(C)C(=O)c1cnc(Nc2ccccc2Cl)s1	3.16 µM [rising, single point]
CCCCN1C(=O)C2C3C=CC(C2C1=O)C1C2C(=O)N(CCCC)C(=O)C2C31 (configuration not stated)	0.01 µM [rising, full curve, poor fit]
Cc1cc2ccccc2n1CCNC(=O)C1CCCC1	0.0251 µM [falling, full curve, poor fit]
